{"source": "PubChem BioAssay AID686938, Drosophila RNAi Screening Center | 2013", "assay": "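Looking for CRAC channel components and the factors controlling them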 (primary screen)", "system": "Drosophila S2R+ cells", "knock-down reagent": "long dsRNA against Drosophila genes, about 0.25 µg dsRNA per well, roughly 10,000 cells", "duration": "5 days of knock-down before the calcium assay", "challenge": "thapsigargin (SERCA pump blocker) to empty calcium stores; entry signal taken 4 min after adding it", "measurement": "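Per-well fluo-4 fluorescence in two replicates, unnormalised, measured in resting cells and 4 min after store depletion by the SERCA blocker thapsigargin; ratio of the two present in few wells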", "scale": "calcium entry signal: higher = stronger calcium signal after store depletion; resting calcium signal: higher = higher resting calcium signal", "hit rule": "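Hit if the duplicate-averaged plate z-score for entry over resting signal is under −3; wells with weak total dye signal (Fmax z < −2) or more than 5 off-targets removed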", "meaning of the calls": "active = strongly reduced calcium entry; inactive = no strong reduction", "note": "In all, the deposit lists about 23,000 reagents; shown is a random part of those that have a named target and a result. Over the whole deposit, 75 (0.33%) are marked active. 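Raw plate signals without normalisation; calls rest on plate z-scores that were not deposited; ratio present for only 364 wells.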 Names joined by + are all predicted targets of the reagent. The record does not give: the dose of the treatment."}
The first 2 entries, to show the layout:
{"target gene": "PolA1 (DNA polymerase alpha subunit 1)", "calcium entry signal, replicate 1 (fluorescence units)": 2.12e7, "calcium entry signal, replicate 2 (fluorescence units)": 2.25e7, "resting calcium signal, replicate 1 (fluorescence units)": 1.31e7, "resting calcium signal, replicate 2 (fluorescence units)": 1.16e7, "Call": "inactive"}
{"target gene": "Or65b (Odorant receptor 65b)", "calcium entry signal, replicate 1 (fluorescence units)": 2.45e7, "calcium entry signal, replicate 2 (fluorescence units)": 4.13e7, "resting calcium signal, replicate 1 (fluorescence units)": 1.59e7, "resting calcium signal, replicate 2 (fluorescence units)": 1.86e7, "Call": "inactive"}

The list itself, from the first entry:
{"target gene": "PolA1 (DNA polymerase alpha subunit 1)", "calcium entry signal, replicate 1 (fluorescence units)": 2.12e7, "calcium entry signal, replicate 2 (fluorescence units)": 2.25e7, "resting calcium signal, replicate 1 (fluorescence units)": 1.31e7, "resting calcium signal, replicate 2 (fluorescence units)": 1.16e7, "Call": "inactive"}
{"target gene": "Or65b (Odorant receptor 65b)", "calcium entry signal, replicate 1 (fluorescence units)": 2.45e7, "calcium entry signal, replicate 2 (fluorescence units)": 4.13e7, "resting calcium signal, replicate 1 (fluorescence units)": 1.59e7, "resting calcium signal, replicate 2 (fluorescence units)": 1.86e7, "Call": "inactive"}
{"target gene": "Qsox1 (Quiescin sulfhydryl oxidase 1)", "calcium entry signal, replicate 1 (fluorescence units)": 2.20e7, "calcium entry signal, replicate 2 (fluorescence units)": 2.19e7, "resting calcium signal, replicate 1 (fluorescence units)": 1.11e7, "resting calcium signal, replicate 2 (fluorescence units)": 1.19e7, "Call": "inactive"}
{"target gene": "Elo68alpha (Elongase 68alpha)", "calcium entry signal, replicate 1 (fluorescence units)": 3.60e7, "calcium entry signal, replicate 2 (fluorescence units)": 3.86e7, "resting calcium signal, replicate 1 (fluorescence units)": 2.09e7, "resting calcium signal, replicate 2 (fluorescence units)": 1.89e7, "Call": "inactive"}
{"target gene": "CG3483", "calcium entry signal, replicate 1 (fluorescence units)": 3.64e7, "resting calcium signal, replicate 1 (fluorescence units)": 2.01e7, "Call": "inactive"}
{"target gene": "CG17097", "calcium entry signal, replicate 1 (fluorescence units)": 3.04e7, "calcium entry signal, replicate 2 (fluorescence units)": 4.45e7, "resting calcium signal, replicate 1 (fluorescence units)": 1.69e7, "resting calcium signal, replicate 2 (fluorescence units)": 2.04e7, "Call": "inactive"}
{"target gene": "CG5888", "calcium entry signal, replicate 1 (fluorescence units)": 3.29e7, "resting calcium signal, replicate 1 (fluorescence units)": 1.78e7, "Call": "inactive"}
{"target gene": "Crg-1 (Circadianly Regulated Gene)", "calcium entry signal, replicate 1 (fluorescence units)": 4.39e7, "calcium entry signal, replicate 2 (fluorescence units)": 2.49e7, "resting calcium signal, replicate 1 (fluorescence units)": 2.10e7, "resting calcium signal, replicate 2 (fluorescence units)": 1.24e7, "Call": "inactive"}
{"target gene": "glob3 (globin 3)", "calcium entry signal, replicate 1 (fluorescence units)": 4.49e7, "calcium entry signal, replicate 2 (fluorescence units)": 5.50e7, "resting calcium signal, replicate 1 (fluorescence units)": 2.15e7, "resting calcium signal, replicate 2 (fluorescence units)": 2.57e7, "Call": "inactive"}
{"target gene": "LManII (Lysosomal alpha-mannosidase II)", "calcium entry signal, replicate 1 (fluorescence units)": 4.31e7, "resting calcium signal, replicate 1 (fluorescence units)": 2.27e7, "Call": "inactive"}
{"target gene": "jhamt (juvenile hormone acid methyltransferase)", "calcium entry signal, replicate 1 (fluorescence units)": 4.86e7, "calcium entry signal, replicate 2 (fluorescence units)": 3.59e7, "resting calcium signal, replicate 1 (fluorescence units)": 2.30e7, "resting calcium signal, replicate 2 (fluorescence units)": 1.85e7, "Call": "inactive"}
{"target gene": "CG42822", "calcium entry signal, replicate 1 (fluorescence units)": 4.28e7, "calcium entry signal, replicate 2 (fluorescence units)": 2.46e7, "resting calcium signal, replicate 1 (fluorescence units)": 1.91e7, "resting calcium signal, replicate 2 (fluorescence units)": 1.19e7, "Call": "inactive"}
{"target gene": "CG18234", "calcium entry signal, replicate 1 (fluorescence units)": 3.99e7, "calcium entry signal, replicate 2 (fluorescence units)": 6.43e7, "resting calcium signal, replicate 1 (fluorescence units)": 1.95e7, "resting calcium signal, replicate 2 (fluorescence units)": 2.57e7, "Call": "inactive"}
{"target gene": "CG32086", "calcium entry signal, replicate 1 (fluorescence units)": 3.27e7, "calcium entry signal, replicate 2 (fluorescence units)": 4.26e7, "resting calcium signal, replicate 1 (fluorescence units)": 1.57e7, "resting calcium signal, replicate 2 (fluorescence units)": 1.92e7, "Call": "inactive"}
{"target gene": "PIG-H + Kmn2", "calcium entry signal, replicate 1 (fluorescence units)": 2.48e7, "calcium entry signal, replicate 2 (fluorescence units)": 3.24e7, "resting calcium signal, replicate 1 (fluorescence units)": 1.41e7, "resting calcium signal, replicate 2 (fluorescence units)": 1.54e7, "Call": "inactive"}
{"target gene": "CG4617", "calcium entry signal, replicate 1 (fluorescence units)": 4.07e7, "calcium entry signal, replicate 2 (fluorescence units)": 4.18e7, "resting calcium signal, replicate 1 (fluorescence units)": 1.97e7, "resting calcium signal, replicate 2 (fluorescence units)": 1.90e7, "Call": "inactive"}
{"target gene": "CG13050", "calcium entry signal, replicate 1 (fluorescence units)": 3.26e7, "calcium entry signal, replicate 2 (fluorescence units)": 6.09e7, "resting calcium signal, replicate 1 (fluorescence units)": 1.62e7, "resting calcium signal, replicate 2 (fluorescence units)": 2.23e7, "Call": "inactive"}
{"target gene": "CYLD (Cylindromatosis)", "calcium entry signal, replicate 1 (fluorescence units)": 2.92e7, "calcium entry signal, replicate 2 (fluorescence units)": 3.77e7, "resting calcium signal, replicate 1 (fluorescence units)": 1.55e7, "resting calcium signal, replicate 2 (fluorescence units)": 1.59e7, "Call": "inactive"}
{"target gene": "lncRNA:CR32690 (long non-coding RNA:CR32690)", "calcium entry signal, replicate 1 (fluorescence units)": 3.47e7, "calcium entry signal, replicate 2 (fluorescence units)": 4.83e7, "resting calcium signal, replicate 1 (fluorescence units)": 1.90e7, "resting calcium signal, replicate 2 (fluorescence units)": 2.84e7, "Call": "inactive"}
{"target gene": "Ntf-2 (Nuclear transport factor-2)", "calcium entry signal, replicate 1 (fluorescence units)": 6.65e7, "calcium entry signal, replicate 2 (fluorescence units)": 2.96e7, "resting calcium signal, replicate 1 (fluorescence units)": 5.92e7, "resting calcium signal, replicate 2 (fluorescence units)": 1.62e7, "Call": "inactive"}
{"target gene": "CG15219", "calcium entry signal, replicate 1 (fluorescence units)": 6.74e7, "calcium entry signal, replicate 2 (fluorescence units)": 4.91e7, "resting calcium signal, replicate 1 (fluorescence units)": 2.99e7, "resting calcium signal, replicate 2 (fluorescence units)": 1.86e7, "Call": "inactive"}
